The values that follow come from the supplement of paper PMC11732987, “Enantioselective OTUD7B fragment discovery through chemoproteomics screening and high-throughput optimisation” (Communications Chemistry, 2025).

Chains of the proteins cited; added tags and fusions are not shown. Lines headed by an entry give the natural chain unless they say otherwise; changes in a name come on top. Residues count along the entry.
UniProt Q8WTS1, 298-318: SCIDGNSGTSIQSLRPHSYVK
UniProt Q12979: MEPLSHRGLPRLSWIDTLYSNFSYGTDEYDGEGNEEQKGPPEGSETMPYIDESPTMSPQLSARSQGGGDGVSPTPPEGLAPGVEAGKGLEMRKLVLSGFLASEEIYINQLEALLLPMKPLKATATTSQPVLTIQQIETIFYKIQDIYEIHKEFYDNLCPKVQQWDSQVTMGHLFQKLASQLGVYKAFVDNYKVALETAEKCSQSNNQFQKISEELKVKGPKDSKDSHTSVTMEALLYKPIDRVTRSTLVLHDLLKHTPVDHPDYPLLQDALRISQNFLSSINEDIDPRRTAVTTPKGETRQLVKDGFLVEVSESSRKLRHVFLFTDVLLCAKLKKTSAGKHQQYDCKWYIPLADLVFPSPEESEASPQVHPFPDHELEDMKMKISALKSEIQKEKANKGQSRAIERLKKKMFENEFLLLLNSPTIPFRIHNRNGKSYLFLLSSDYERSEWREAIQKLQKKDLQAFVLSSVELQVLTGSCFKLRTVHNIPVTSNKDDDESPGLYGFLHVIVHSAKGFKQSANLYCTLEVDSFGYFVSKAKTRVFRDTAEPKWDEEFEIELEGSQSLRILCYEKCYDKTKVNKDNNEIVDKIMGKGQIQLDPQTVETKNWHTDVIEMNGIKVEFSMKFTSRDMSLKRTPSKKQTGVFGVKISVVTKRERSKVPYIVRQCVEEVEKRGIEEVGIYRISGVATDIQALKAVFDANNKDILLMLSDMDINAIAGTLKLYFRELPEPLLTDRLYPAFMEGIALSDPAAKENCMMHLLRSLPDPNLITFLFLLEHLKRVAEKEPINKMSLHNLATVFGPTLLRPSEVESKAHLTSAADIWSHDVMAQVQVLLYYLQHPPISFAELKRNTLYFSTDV
UniProt Q5JTZ9, whole entry, looked up: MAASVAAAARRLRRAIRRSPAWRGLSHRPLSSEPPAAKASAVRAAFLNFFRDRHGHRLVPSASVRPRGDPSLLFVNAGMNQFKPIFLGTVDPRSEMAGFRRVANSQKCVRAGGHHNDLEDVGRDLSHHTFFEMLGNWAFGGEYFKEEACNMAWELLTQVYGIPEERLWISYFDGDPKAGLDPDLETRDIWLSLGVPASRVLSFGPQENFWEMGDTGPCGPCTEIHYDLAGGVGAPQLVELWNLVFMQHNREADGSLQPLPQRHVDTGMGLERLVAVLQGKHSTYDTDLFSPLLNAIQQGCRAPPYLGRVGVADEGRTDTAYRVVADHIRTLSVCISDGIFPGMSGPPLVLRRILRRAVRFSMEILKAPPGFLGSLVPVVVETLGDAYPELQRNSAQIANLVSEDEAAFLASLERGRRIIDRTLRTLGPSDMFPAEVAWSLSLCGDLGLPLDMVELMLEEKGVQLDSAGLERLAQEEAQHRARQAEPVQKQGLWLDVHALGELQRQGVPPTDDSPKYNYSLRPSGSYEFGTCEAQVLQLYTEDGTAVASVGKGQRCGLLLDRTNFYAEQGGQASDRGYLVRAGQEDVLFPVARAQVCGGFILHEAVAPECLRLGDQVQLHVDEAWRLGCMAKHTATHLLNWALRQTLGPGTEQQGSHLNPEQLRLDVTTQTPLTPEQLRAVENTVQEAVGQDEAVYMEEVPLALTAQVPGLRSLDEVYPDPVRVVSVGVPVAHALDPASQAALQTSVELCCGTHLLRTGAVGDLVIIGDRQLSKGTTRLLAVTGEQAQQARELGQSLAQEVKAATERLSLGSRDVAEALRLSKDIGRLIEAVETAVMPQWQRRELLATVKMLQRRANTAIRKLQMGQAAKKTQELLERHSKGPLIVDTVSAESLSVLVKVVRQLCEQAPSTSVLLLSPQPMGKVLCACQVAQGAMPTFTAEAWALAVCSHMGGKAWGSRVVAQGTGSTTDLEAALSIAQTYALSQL
UniProt P08183: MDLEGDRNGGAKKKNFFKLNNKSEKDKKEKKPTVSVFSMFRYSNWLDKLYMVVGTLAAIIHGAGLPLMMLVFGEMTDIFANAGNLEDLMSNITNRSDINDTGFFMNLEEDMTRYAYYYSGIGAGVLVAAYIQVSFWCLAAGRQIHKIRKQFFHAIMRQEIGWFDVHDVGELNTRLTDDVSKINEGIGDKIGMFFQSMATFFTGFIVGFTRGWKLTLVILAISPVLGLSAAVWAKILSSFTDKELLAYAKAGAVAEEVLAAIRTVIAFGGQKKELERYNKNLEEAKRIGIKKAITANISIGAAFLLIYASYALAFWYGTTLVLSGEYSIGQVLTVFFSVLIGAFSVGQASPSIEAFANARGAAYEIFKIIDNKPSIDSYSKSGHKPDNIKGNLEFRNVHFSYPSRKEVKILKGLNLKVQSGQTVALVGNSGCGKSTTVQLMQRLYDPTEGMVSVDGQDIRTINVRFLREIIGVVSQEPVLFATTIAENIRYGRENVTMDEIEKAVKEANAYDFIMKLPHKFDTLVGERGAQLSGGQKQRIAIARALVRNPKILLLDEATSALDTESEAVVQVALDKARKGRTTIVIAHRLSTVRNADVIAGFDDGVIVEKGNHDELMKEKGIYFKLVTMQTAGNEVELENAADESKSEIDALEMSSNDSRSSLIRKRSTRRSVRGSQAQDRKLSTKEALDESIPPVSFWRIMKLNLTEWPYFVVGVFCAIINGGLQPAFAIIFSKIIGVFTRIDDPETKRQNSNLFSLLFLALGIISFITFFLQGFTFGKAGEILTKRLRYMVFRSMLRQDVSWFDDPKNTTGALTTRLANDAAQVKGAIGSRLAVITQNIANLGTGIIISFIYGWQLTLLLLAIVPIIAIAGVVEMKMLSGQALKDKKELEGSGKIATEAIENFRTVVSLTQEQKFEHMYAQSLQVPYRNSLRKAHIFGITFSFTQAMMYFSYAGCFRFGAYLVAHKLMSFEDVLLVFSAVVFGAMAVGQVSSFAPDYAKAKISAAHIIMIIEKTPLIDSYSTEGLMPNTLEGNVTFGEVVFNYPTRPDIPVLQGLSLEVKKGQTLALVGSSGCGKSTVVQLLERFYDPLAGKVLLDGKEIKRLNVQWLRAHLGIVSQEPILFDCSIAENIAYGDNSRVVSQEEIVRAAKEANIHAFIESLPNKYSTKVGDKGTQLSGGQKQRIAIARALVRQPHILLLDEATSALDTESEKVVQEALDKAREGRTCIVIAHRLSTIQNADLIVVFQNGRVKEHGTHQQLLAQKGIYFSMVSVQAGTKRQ
UniProt P09110, 139-158: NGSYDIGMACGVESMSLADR
UniProt P00519, whole entry, looked up: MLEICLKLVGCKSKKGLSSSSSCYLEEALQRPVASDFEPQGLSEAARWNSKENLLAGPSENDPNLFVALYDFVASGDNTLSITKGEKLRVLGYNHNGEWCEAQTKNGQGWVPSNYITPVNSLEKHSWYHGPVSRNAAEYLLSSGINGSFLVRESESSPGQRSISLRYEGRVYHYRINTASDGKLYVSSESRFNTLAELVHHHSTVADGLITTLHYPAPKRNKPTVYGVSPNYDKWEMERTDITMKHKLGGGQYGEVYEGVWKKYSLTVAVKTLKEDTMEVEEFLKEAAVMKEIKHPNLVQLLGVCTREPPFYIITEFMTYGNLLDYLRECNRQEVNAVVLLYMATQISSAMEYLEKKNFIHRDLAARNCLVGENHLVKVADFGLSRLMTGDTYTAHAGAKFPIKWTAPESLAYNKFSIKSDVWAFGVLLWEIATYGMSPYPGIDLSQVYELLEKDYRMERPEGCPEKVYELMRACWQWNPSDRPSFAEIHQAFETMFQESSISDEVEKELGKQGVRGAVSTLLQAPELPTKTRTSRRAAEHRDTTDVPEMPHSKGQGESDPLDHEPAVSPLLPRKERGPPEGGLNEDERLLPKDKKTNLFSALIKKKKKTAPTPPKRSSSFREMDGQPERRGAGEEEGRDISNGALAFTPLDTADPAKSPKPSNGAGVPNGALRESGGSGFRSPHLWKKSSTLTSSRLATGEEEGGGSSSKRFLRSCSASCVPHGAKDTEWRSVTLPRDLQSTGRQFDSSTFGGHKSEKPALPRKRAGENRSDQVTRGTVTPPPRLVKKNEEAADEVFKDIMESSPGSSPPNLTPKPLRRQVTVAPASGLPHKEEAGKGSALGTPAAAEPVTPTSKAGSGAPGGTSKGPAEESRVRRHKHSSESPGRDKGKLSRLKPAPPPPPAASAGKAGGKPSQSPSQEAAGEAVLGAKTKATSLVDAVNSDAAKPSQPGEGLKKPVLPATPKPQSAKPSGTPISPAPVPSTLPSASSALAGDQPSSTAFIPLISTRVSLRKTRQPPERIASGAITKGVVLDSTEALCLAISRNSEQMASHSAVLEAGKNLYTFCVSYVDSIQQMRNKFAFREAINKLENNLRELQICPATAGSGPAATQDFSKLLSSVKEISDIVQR
UniProt Q4L235: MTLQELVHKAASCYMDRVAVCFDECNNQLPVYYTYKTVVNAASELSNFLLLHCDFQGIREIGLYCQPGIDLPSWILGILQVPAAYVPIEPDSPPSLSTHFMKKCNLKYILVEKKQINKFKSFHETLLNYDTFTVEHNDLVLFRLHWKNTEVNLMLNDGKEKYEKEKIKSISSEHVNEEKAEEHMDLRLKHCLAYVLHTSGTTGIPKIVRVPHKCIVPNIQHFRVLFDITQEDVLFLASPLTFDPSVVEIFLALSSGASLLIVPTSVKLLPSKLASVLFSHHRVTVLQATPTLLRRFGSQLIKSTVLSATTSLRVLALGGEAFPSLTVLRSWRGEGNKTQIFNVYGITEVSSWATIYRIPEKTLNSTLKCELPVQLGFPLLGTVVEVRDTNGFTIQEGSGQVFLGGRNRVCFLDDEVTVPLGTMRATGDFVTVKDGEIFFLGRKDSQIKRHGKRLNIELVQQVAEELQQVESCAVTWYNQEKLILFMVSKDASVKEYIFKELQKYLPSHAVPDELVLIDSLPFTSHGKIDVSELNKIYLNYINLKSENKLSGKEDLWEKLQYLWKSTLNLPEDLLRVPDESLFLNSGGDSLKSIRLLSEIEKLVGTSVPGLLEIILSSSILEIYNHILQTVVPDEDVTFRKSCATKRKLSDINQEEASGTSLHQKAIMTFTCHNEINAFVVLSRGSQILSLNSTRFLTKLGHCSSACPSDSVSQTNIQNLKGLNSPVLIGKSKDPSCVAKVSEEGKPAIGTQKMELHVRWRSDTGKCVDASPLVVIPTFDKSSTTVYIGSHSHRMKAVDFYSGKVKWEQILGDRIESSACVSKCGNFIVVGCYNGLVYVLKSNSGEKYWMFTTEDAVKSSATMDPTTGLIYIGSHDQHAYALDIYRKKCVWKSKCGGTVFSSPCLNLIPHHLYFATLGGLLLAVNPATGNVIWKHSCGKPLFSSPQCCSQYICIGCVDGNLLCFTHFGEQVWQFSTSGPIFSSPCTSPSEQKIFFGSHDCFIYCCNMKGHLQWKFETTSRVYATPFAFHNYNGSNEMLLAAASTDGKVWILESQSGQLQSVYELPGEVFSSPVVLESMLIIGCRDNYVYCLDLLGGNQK
UniProt P33897, 713-745: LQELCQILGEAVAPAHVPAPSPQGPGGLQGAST
UniProt Q8N2K0: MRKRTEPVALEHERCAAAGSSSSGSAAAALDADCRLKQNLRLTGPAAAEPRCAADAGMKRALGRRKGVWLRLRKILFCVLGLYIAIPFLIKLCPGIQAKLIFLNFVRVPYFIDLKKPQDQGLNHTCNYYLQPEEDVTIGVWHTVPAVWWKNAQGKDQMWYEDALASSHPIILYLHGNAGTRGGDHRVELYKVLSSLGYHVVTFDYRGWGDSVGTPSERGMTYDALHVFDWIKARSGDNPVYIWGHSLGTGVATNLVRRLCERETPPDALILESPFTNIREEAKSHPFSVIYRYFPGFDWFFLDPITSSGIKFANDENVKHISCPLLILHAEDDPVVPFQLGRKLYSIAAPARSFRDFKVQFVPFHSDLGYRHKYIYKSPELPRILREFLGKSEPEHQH
UniProt P16219: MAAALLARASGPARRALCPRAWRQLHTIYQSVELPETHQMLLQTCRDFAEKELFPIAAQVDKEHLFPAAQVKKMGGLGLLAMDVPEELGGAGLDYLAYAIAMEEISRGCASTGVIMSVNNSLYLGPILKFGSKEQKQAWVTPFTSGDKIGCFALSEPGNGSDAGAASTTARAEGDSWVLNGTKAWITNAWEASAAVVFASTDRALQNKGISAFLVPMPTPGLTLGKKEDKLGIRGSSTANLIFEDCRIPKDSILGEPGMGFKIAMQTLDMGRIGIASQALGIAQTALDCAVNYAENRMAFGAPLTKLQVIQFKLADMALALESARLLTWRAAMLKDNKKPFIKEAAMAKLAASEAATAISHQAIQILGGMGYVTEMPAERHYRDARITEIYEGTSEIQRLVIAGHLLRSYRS

This is one part of the list. The data scatter; read single values as rough.

Compound in one experiment: ClCC(=O)N[C@H]1CCCc2ccccc12
As to the kind of experiment: log2 mean competition ratio of IA-DTB cysteine labelling (DMSO/compound) (log2 ratio); higher = stronger cysteine engagement by compound. Particulars: 50 µM; treatment time: 4 h; cell line lysate: HEK293T. How it is done: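 IA-DTB competitive cysteine chemoproteomics in HEK293T RIPA lysate. Lysates were treated with compound 29 or 30 at 50 or 200 µM for 4 h, then IA-DTB (500 µM, 1 h), trypsin-digested, NeutrAvidin-enriched and analysed by diaPASEF. Competition ratio = intensity DMSO / intensity compound (n=4 treated, n=64 DMSO); binding: mean log2 CR ≥ 1 and p ≤ 0.05 plus QC filters. Target is the cysteine site.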
For ABHD5 C299 (UniProt Q8WTS1), the “log2 mean competition ratio” value turned out to be 0.0636.

For the target AAK1 C193, the “log2 mean competition ratio” value is -0.0304.

With AAK1 C288, the “log2 mean competition ratio” value was 0.607.

Regarding ABCF3 C522 (UniProt Q9NUQ8), the “log2 mean competition ratio” value was -0.0893.

Regarding ACAP2 C53 (UniProt Q15057), the “log2 mean competition ratio” value was determined as 0.393.

Take ABR C201 (UniProt Q12979): the “log2 mean competition ratio” value amounted to 0.558.

For the target AARS2 C555 (UniProt Q5JTZ9), the “log2 mean competition ratio” value is -0.153.

For the target ABCB1 C431 (UniProt P08183), the “log2 mean competition ratio” value is -0.235.

With ABL2 C415 (UniProt P42684), the “log2 mean competition ratio” value is -0.237.

Take ACAA1 C148 (UniProt P09110): the “log2 mean competition ratio” value turned out to be 0.903.

As for ABL1 C464 (UniProt P00519), the “log2 mean competition ratio” value was 0.313.

For ABCF1 C515, the “log2 mean competition ratio” value was 0.46.

As to AARS1 C671 (UniProt H3BPK7), the “log2 mean competition ratio” value was -0.416.

As to AASDH C13 (UniProt Q4L235), the “log2 mean competition ratio” value amounted to 0.0738.

In the case of AAMP C208 (UniProt Q13685), the “log2 mean competition ratio” value is -0.173.

With ABCD1 C717 (UniProt P33897), the “log2 mean competition ratio” value is 0.101.

With ACACA C813 (UniProt Q13085), the “log2 mean competition ratio” value was -0.322.

With ACAT1 C126, the “log2 mean competition ratio” value was 0.406.

In the case of ABHD12 C52 (UniProt Q8N2K0), the “log2 mean competition ratio” value is -0.074.

Turning to ACADS C246 (UniProt P16219), the “log2 mean competition ratio” value was -0.0307.

Still in this experiment, the particulars now being: 200 µM; treatment time: 4 h; cell line lysate: HEK293T.
ABHD5 C299 (UniProt Q8WTS1): the “log2 mean competition ratio” value worked out at 0.0412.

For AAK1 C193, the “log2 mean competition ratio” value was -0.124.

As to AAK1 C288, the “log2 mean competition ratio” value was 0.276.

Take ABCF3 C522 (UniProt Q9NUQ8): the “log2 mean competition ratio” value is -0.00246.

As to ACAP2 C53 (UniProt Q15057), the “log2 mean competition ratio” value was -0.0666.

With ABR C201 (UniProt Q12979), the “log2 mean competition ratio” value is -0.0574.

In the case of AARS2 C555 (UniProt Q5JTZ9), the “log2 mean competition ratio” value turned out to be 0.0137.

As for ABCB1 C431 (UniProt P08183), the “log2 mean competition ratio” value is -0.286.

Consider ABL2 C415 (UniProt P42684), for which the “log2 mean competition ratio” value was -0.047.

Regarding ACAA1 C148 (UniProt P09110), the “log2 mean competition ratio” value was -0.0825.

For ABL1 C464 (UniProt P00519), the “log2 mean competition ratio” value was -0.152.

Take ABCF1 C515: the “log2 mean competition ratio” value stood at 0.111.

For the target AARS1 C671 (UniProt H3BPK7), the “log2 mean competition ratio” value was -0.459.

On to AASDH C13 (UniProt Q4L235), for which the “log2 mean competition ratio” value is -0.0394.

Regarding AAMP C208 (UniProt Q13685), the “log2 mean competition ratio” value stood at 0.374.

Consider ABCD1 C717 (UniProt P33897), for which the “log2 mean competition ratio” value was -0.27.

Take ACACA C813 (UniProt Q13085): the “log2 mean competition ratio” value was determined as 0.31.

For ACAT1 C126, the “log2 mean competition ratio” value worked out at 0.487.

Regarding ABHD12 C52 (UniProt Q8N2K0), the “log2 mean competition ratio” value is 0.196.

On to ACADS C246 (UniProt P16219), for which the “log2 mean competition ratio” value worked out at 0.0662.
